In all, about 330,000 compounds went through this assay and about 7,700 (2.3%) were called active. Inconclusive results, whose numbers are uncertain, are shown with a selection of clear calls. Calls come from the whole dose curve; as a rule, active = well fitted inhibition curve with a large enough effect; inconclusive = small, poorly fitted or top-dose-only effect, or effect the other way; inactive = flat fitted curve, though single readings scatter. A potency beside an inconclusive call is a rough fit, not a confirmed value.
Assay: qHTS screen for small molecules that inhibit ELG1-dependent DNA repair in human embryonic kidney (HEK293T) cells expressing luciferase-tagged ELG1; note: nearly all actives have a fitted effect of over 55% in size
Settings: HEK293T ELG1-luciferase reporter, luminescence, 16 h, DNA damage induced by 5-fluorouridine; series mostly up to 46.1 µM
Summary of the method: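 Reporter activity after DNA damage by 5-fluorouridine is monitored. Compound-treated cells incubate 16 hr at 37 °C, then ONE-Glo is added for 30 min before luminescence reading.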
With `O=C(NCCCN1CCOCC1)c1sc2ccccc2c1Cl` the Potency was inconclusive: 18.3 µM [activator, partial curve]. For `N#C/C(=C/c1ccc2c(c1)OCO2)C(=O)Nc1ccc(O)cc1`, the Potency was inconclusive: 29.1 µM [activator, single point]. In the case of `COc1cccc(-c2nn(-c3ccccc3)cc2C(=O)n2nnc3ccccc32)c1`, the Potency is reported as inconclusive: 16.4 µM [activator, partial curve, poor fit]. In the case of `Cc1ccc2[nH]c(=O)c(CN(Cc3ccccc3)C(=S)NCCCN(C)C)cc2c1`, the Potency is reported as inconclusive: 1.3 µM [activator, partial curve]. For `Oc1ccc(-c2[nH]ncc2-c2ccc(Br)cc2)c(O)c1`, the Potency was inconclusive: 29.1 µM [inhibitor, partial curve, poor fit]. For `CC(C)CCn1c(CN2CCN(c3cccc(Cl)c3)CC2)nc2c1c(=O)n(C)c(=O)n2C`, the Potency was inconclusive: 18.3 µM [inhibitor, single point]. With `Cc1nn(-c2ccccc2)c(C)c1NC(=O)COc1cc(F)ccc1[N+](=O)[O-]` the Potency was inconclusive: 20.6 µM [inhibitor, single point]. In the case of `Cc1c(/C=C/C(=O)c2ccc(Cl)s2)cnn1C`, the Potency is reported as inconclusive: 23.1 µM [activator, partial curve]. For `O=C(OCCN1C(=O)c2ccccc2C1=O)c1cnccn1`, the Potency was “inactive”. With `NS(=O)(=O)c1cccc(NS(=O)(=O)c2ccc(/C=C/C(=O)OCC(=O)c3ccccc3)cc2)c1` the Potency was “inactive”. For `Cc1ccccc1C1=NC(c2ccc(F)cc2F)ON1` (stereo not drawn), the Potency was inconclusive: 18.4 µM [activator, partial curve]. With `COc1ccc(C(=O)NCC(=O)OCc2ccc([N+](=O)[O-])cc2)cc1` the Potency was “inactive”. With `Cc1nc2ccccc2c2oc(C(=O)NCC3CCCO3)cc12` (stereo not drawn) the Potency was active: 20.6 µM. In the case of `Cc1cccc(-n2cc(C(=O)O)c(=O)cc2C)c1`, the Potency is reported as “inactive”. In the case of `Cc1ccc(S(=O)(=O)N(CC(=O)Nc2cccnc2)c2cccc(Br)c2)cc1`, the Potency is reported as inconclusive: 32.6 µM [inhibitor, single point]. For `COc1ccc(NC(=O)CN(C)C(=O)/C=C/c2cn(-c3ccccc3)nc2-c2ccc(F)cc2)cc1`, the Potency was inconclusive: 8.2 µM [inhibitor, partial curve]. With `CCOc1ccccc1N1CCN(Cc2ccco2)CC1` the Potency was “inactive”. For `Cc1ccc(N2CCN(C(=O)c3ccccc3Br)CC2)c(C)c1`, the Potency was “inactive”. For `Cc1noc(C)c1COC(=O)c1ccc(N(C)C)cc1`, the Potency was inconclusive: 29.1 µM [activator, single point]. In the case of `CCn1c(SCc2nc3ccccc3[nH]2)nnc1-c1ccccc1OC`, the Potency is reported as inconclusive: 15.8 µM [inhibitor, partial curve, poor fit]. In the case of `Cc1ccc(CNC(=O)c2oc3ccc(S(=O)(=O)N4CCC5(CC4)OCCO5)cc3c2C)cc1`, the Potency is reported as active: 0.82 µM. With `COc1ccc(N2CCN(C(=O)c3ccc4c(=O)n(CCc5ccc(OC)c(OC)c5)c(=O)[nH]c4c3)CC2)cc1` the Potency was active: 1.83 µM. In the case of `O=C(CCc1ccccc1)Nc1cccc(-c2nnc(-c3ccco3)o2)c1`, the Potency is reported as inconclusive: 25.9 µM [inhibitor, single point]. For `COc1ccc(N(CC(=O)N2CCN(Cc3ccccc3)CC2)S(C)(=O)=O)cc1Cl`, the Potency was inconclusive: 2.31 µM [inhibitor, partial curve, poor fit]. In the case of `Cc1ccc(C(C(=O)NC(C)(C)C)N(Cc2ccc3c(c2)OCO3)C(=O)c2ccc(CN3CCOCC3)o2)o1` (stereo not drawn), the Potency is reported as inconclusive: 29.1 µM [inhibitor, partial curve, poor fit]. For `c1ccc(NCc2nc3ccccc3n2CCOc2ccccc2)cc1`, the Potency was inconclusive: 16.4 µM [activator, single point]. For `CCC[N+](CC#CCO)(CC#Cc1ccccc1)CCC`, the Potency was inconclusive: 25.9 µM [inhibitor, partial curve]. In the case of `COCCN(C(=O)CCSc1ccc(F)cc1)c1c(N)n(Cc2ccccc2)c(=O)[nH]c1=O`, the Potency is reported as “inactive”. For `CC1Cc2ccccc2N1C(=O)c1cc2cccnc2n(C)c1=O` (stereo not drawn), the Potency was “inactive”. For `Cc1c(-c2ccccc2)nnn1-c1ccc(F)cc1F`, the Potency was inconclusive: 20.6 µM [activator, partial curve]. In the case of `N#C/C(=C\c1ccc[nH]1)C(=O)Nc1ccccc1Cl`, the Potency is reported as inconclusive: 2.59 µM [activator, full curve]. In the case of `O=C1C(Cl)=C(NCCCO)C(=O)c2ccccc21`, the Potency is reported as “inactive”. With `Cc1nn(-c2ccccc2)c(C)c1C(=O)OCC(=O)N(C)C1CCS(=O)(=O)C1` (stereo not drawn) the Potency was inconclusive: 23.1 µM [activator, partial curve]. With `O=C(C1=C(O)C(=O)N(CCOCCO)C1c1cccc([N+](=O)[O-])c1)c1cccs1` (stereo not drawn) the Potency was inconclusive: 20.6 µM [activator, partial curve, poor fit]. In the case of `O=C(O)CCCNS(=O)(=O)c1ccc(F)cc1`, the Potency is reported as “inactive”. For `COc1ccccc1N1CCN(C(c2cccs2)C(C)NC(=O)c2cccs2)CC1` (stereo not drawn), the Potency was inconclusive: 29.1 µM [inhibitor, single point]. In the case of `COc1cccc(NC(=O)c2ncc(Cl)c(Cl)c2Cl)c1`, the Potency is reported as inconclusive: 23.1 µM [activator, single point]. With `CCOC(=O)C1CCCN(C(=O)c2cc3c(-c4cccc(OC)c4)nn(C)c3s2)C1` (stereo not drawn) the Potency was active: 11.6 µM. With `CCC(C(=O)NC1CCCC1)N(C(=O)Cn1nnc(-c2ccc(OC)c(OC)c2)n1)C1CCCCC1` (stereo not drawn) the Potency was inconclusive: 29.1 µM [inhibitor, single point]. In the case of `COCCNC(=O)/C(C#N)=C/c1c(N2CCN(c3cccc(Cl)c3)CC2)nc2c(C)cccn2c1=O`, the Potency is reported as inconclusive: 20.6 µM [inhibitor, single point]. With `COc1ccc(Nc2nc(-c3sc(C)nc3C)cs2)cc1` the Potency was “inactive”. In the case of `Cc1ccc(NS(=O)(=O)c2cccc(C(=O)NCC(c3cccs3)N3CCOCC3)c2)cc1` (stereo not drawn), the Potency is reported as inconclusive: 32.6 µM [inhibitor, partial curve, poor fit]. With `O=C(Nc1ccc(Cl)c(Cl)c1)C1=Cc2ccccc2OC1` the Potency was inconclusive: 2.31 µM [activator, partial curve].

Source: PubChem BioAssay AID504467 (National Center for Advancing Translational Sciences (NCATS), 2011)
Potency is the fitted concentration of half-maximal effect.
